Results from publication PMC5503513.

Chains of the proteins cited; added tags and fusions are not shown. Residues count along the entry.
UniProt P09651, 2-97 R92A: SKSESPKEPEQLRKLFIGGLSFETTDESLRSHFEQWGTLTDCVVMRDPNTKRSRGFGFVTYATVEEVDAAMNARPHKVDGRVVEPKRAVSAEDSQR
UniProt P09651, 1-196: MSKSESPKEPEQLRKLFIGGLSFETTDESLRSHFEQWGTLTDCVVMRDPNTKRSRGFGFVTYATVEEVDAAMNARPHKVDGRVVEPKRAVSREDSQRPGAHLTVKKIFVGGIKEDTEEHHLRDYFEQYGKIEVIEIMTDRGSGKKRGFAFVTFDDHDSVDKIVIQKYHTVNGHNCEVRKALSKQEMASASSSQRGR
UniProt P09651, 2-97 R55A: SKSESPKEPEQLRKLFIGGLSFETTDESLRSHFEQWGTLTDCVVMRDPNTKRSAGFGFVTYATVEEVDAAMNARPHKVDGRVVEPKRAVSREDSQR
UniProt P09651, 2-196 R140A: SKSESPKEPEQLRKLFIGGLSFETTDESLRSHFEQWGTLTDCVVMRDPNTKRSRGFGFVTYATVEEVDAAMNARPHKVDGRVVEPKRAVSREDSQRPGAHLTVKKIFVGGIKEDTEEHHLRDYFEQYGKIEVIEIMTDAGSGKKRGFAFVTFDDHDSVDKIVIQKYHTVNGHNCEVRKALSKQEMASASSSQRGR
UniProt P09651, 2-196: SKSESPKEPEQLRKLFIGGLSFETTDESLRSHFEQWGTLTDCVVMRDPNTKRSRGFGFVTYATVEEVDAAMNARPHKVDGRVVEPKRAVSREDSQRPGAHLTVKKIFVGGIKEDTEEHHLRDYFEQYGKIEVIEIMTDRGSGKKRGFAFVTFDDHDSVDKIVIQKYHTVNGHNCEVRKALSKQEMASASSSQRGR
UniProt P09651, 2-97: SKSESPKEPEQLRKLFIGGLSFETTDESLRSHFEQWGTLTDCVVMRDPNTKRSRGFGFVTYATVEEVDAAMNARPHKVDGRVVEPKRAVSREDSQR

Tests used:
hnRNP A1 RRM1 R92A = hnRNP A1 RRM1 R92A (UniProt P09651); assay: ITC; details: ITC: 10 mM NaPi pH 6.5, 10 mM 2-mercaptoethanol, 30 C, protein titrated into RNA; recombinant protein; residues 2-97
UP1 = UP1 (UniProt P09651); assay: NMR titration; details: broad lines; NMR: 10 mM NaPi pH 6.5, 1 mM DTT (303 K stated for UP1-R140A:ISS-N1-u25g); recombinant protein
hnRNP A1 RRM1 R55A = hnRNP A1 RRM1 R55A (UniProt P09651); assay: ITC; details: ITC: 10 mM NaPi pH 6.5, 10 mM 2-mercaptoethanol, 30 C, protein titrated into RNA; recombinant protein; residues 2-97
[1] = target: hnRNP A1 UP1 R140A (Homo sapiens) (UniProt P09651); assay: NMR; details: 10 mM sodium phosphate pH 6.5, 1 mM DTT, protein at 0.2 mM or more, purified recombinant protein
[2] = target: hnRNP A1 UP1 (Homo sapiens) (UniProt P09651); assay: NMR; details: 10 mM sodium phosphate pH 6.5, 1 mM DTT, protein at 0.2 mM or more, purified recombinant protein
hnRNP A1 RRM1 [3] = target: hnRNP A1 RRM1 (UniProt P09651); assay: ITC; details: ITC: 10 mM NaPi pH 6.5, 10 mM 2-mercaptoethanol, 30 C, protein titrated into RNA; recombinant protein; residues 2-97
hnRNP A1 RRM1 [4] = target: hnRNP A1 RRM1 (UniProt P09651); assay: NMR titration; details: fast exchange; NMR: 10 mM NaPi pH 6.5, 1 mM DTT (303 K stated for UP1-R140A:ISS-N1-u25g); recombinant protein; residues 2-97

Work on UUAGUU yielded a Kd (hnRNP A1 RRM1 R92A) of over 10 µM.

GGACCAGGAUUAUGAAAGUGC [ISS-N1-c14g]: binds (UP1).

UUAGGUC was tested, and the Kd (hnRNP A1 RRM1 R55A) was over 10 µM.

GGACCAGCAUUAUGAAAGGGA [ISS-N1-u25g]: binds ([1]; variant of ISS-N1); binds ([2]; variant of ISS-N1); binds (UP1).

GGACCAGCAUUAUGAAAGUGA [ISS-N1]: binds [1]; binds [2].

With UCAGUU the Kd (hnRNP A1 RRM1 [3]) was over 10 µM and the binding result (hnRNP A1 RRM1 [4]) was “binds more weakly”.

For some of these results: A weaker result is weaker than the reference pair of the same experiment. For some of these results: Construct, isoform or probe ends are uncertain for at least one entry. For some of these results: At least one verdict rests on a figure or table, not on a statement of the authors.
